# Data reported in PubChem BioAssay AID1956 (SRMLSC, 2009).
# This is one part of the list. Some salts or complexes appear as unconnected parts, following the source record.
# Assay: enhancers of HSV replication in host cells, fold increase, host cell viability (AID 1956); also: tested in PC3 cells
# Conditions: HSV replication augmentation in cells; fold increase: measured here: primary screen fold increase 10 uM, at 10 µM, stronger effect = higher value; viability: measured here: host cell viability series, at 25 µM, stronger effect = lower value
row,Structure (SMILES),fold increase
1,O=C(OCCCN1CCCC1)C(O)(c1ccccc1)C1CCCCC1 (configuration not stated),0.68
2,COc1ccccc1OP(C)(=O)Nc1c(C)n(C)n(-c2ccccc2)c1=O (configuration not stated),0.93
3,CC(=O)N1C2C3N(C(C)=O)C1C1N(C(C)=O)C(C(N1C(C)=O)N3C(C)=O)N2C(C)=O,1.07
4,O=[N+]([O-])c1cccc2n[nH]nc12,0.993
5,O=[N+]([O-])c1cc([N+](=O)[O-])c(CCNc2ccccc2)c([N+](=O)[O-])c1,1.03
6,CCc1nc2c(n1)c1c(non1O)c1c2no[n+]1[O-],0.85
7,CCc1ccc(OP(C)(=O)Nc2cccnc2)cc1 (configuration not stated),0.94
8,CP(=O)(Oc1ccccc1)N1CCOC1=O (configuration not stated),0.99
9,Cc1ccc(NP(=O)(Oc2ccccc2)Oc2ccccc2)nc1,0.89
10,O=[N+]([O-])c1cc([N+](=O)[O-])c(Nc2ccccn2)c([N+](=O)[O-])c1,0.73
11,CC(C)CC(=O)NC(Sc1ccc(Cl)cc1)C(Cl)(Cl)Cl (configuration not stated),0.85
12,Nc1cc(N)c2nonc2c1[N+](=O)[O-],0.57
13,Cc1c(NP(C)(=O)Oc2ccc(C(C)C)cc2)c(=O)n(-c2ccccc2)n1C (configuration not stated),0.95
14,Cc1c2non([O-])c-2c(C)[n+](=O)[n+]1[O-],0.95
15,O=C(NC(Sc1ccncn1)C(Cl)(Cl)Cl)c1ccccc1 (configuration not stated),0.8
16,Oc1ccccc1CNc1ccccn1,0.93
17,COc1ccccc1OP(C)(=O)Nc1ccc(C)cc1C (configuration not stated),0.96
18,CP(=O)(Nc1ccccn1)Oc1ccccc1 (configuration not stated),0.99
19,CCc1ccc(OP(C)(=O)O)cc1,0.97
20,NC(=O)c1cc([N+](=O)[O-])cc([N+](=O)[O-])c1N,0.87
21,Cc1ccc(N/C(=N/P(=O)(N2CCOCC2)N2CCOCC2)N2CCOCC2)cc1,0.99
22,COc1ccccc1OP(C)(=O)Nc1ccc(Br)cc1 (configuration not stated),0.91
23,Cc1ccc(OP(=O)(Nc2nccs2)Oc2ccc(C)cc2)cc1,0.93

row,Structure (SMILES),fold increase
1,COc1ccc(OP(C)(=O)Nc2ccccn2)cc1 (configuration not stated),0.8
2,COc1ccccc1OP(=O)(Nc1ccc(C)cn1)Oc1ccccc1OC,1
3,CN(C)CCOC(=O)C(O)(c1ccccc1)C1CCCC1 (configuration not stated),0.7
4,Clc1ccc(Cl)c(NC2=NCC(CBr)S2)c1 (configuration not stated),1
5,CN1CCCC(OC(=O)C(c2ccccc2)c2ccccc2)C1 (configuration not stated),0.71
6,Cc1nc2ccc3ccccc3c2o1.O=[N+]([O-])c1cc([N+](=O)[O-])c(O)c([N+](=O)[O-])c1,1.01
7,CCN(N=Nc1nonc1N)c1nonc1N,1.12
8,CP(=O)(OCCOc1ccccc1)OCCOc1ccccc1,0.97
9,CP(=O)(Nc1ccc(Cl)cc1Cl)Oc1ccccc1 (configuration not stated),0.96
10,Nc1cccc2ccc([As](=O)(O)O)cc12,0.98
11,O=C(O)c1ccccc1[As](=O)(O)O,1.11
12,CC(=O)Nc1ccc([As](=O)(O)O)cc1,1.1
13,Cc1cc(C)cc(OP(C)(=O)Nc2cccc(C(F)(F)F)c2)c1 (configuration not stated),1.03
14,O=P(Nc1nc2ccc(Cl)cc2s1)(c1ccccc1)c1ccccc1,0.97
15,CN(C(=O)Cc1ccc(Cl)c(Cl)c1)[C@H]1CCCC[C@@H]1N1CCCC1,0.74
16,Cc1ccc(NP(=O)(Oc2ccccc2F)Oc2ccccc2F)nc1,0.98
17,COc1ccccc1OP(C)(=O)Nc1ccc(C)c(C)c1 (configuration not stated),0.95
18,CCOP(=O)(Nc1ccccc1)OCC,1.06
19,Cc1cc(SC(NC(=O)c2ccc(F)cc2)C(Cl)(Cl)Cl)ncn1 (configuration not stated),0.95
20,COc1ccc(OP(C)(=O)Nc2ccccc2Br)cc1 (configuration not stated),1
21,CC(=O)NC(SC(=S)N(CC(C)C)CC(C)C)C(Cl)(Cl)Cl (configuration not stated),1.02
22,Cc1ccc(OP(=O)(Nc2ccccn2)Oc2ccc(C)cc2)cc1,0.9
23,COC(=O)c1cc2c(s1)N=C(c1ccccc1)N(C)P2(=O)N1CCOCC1 (configuration not stated),0.98

row,Structure (SMILES),fold increase
1,CCC(=O)N1C2C3N(C(=O)CC)C1C1N(C(=O)CC)C(C(N1C(=O)CC)N3C(=O)CC)N2C(=O)CC,0.96
2,CCN(CC)CCCOC(=O)C(O)(c1ccccc1)C1CCCCC1 (configuration not stated),0.94
3,CP(=O)(Nc1ccccc1)Oc1ccc(F)cc1 (configuration not stated),0.93
4,CN(C)C(=O)Oc1noc2ccccc12,1.08
5,O=c1c2cc([N+](=O)[O-])ccc2[nH]c2c([N+](=O)[O-])cc([N+](=O)[O-])cc12,0.65
6,CCCCCOc1ccc(NP(C)(=O)Oc2ccc(Cl)cc2Cl)cc1 (configuration not stated),0.95
7,Cc1ccccc1OP(=O)(Nc1ccccn1)Oc1ccccc1C,0.89
8,O=C(NC1CCS(=O)(=O)C1)NP(=S)(Oc1ccccc1)Oc1ccccc1 (configuration not stated),1.05
9,CCNC(=S)/N=C(\N)N[N+](=O)[O-],1.03
10,Cc1ccc(NP(=O)(Oc2cccc(C)c2)Oc2cccc(C)c2)nc1,0.91
11,CCOC(=O)NC(Sc1ccccc1)C(Cl)(Cl)Cl (configuration not stated),0.76
12,c1ccc(-c2nn[nH]n2)c(-c2nn[nH]n2)c1,1
13,CCOC(=O)c1ccc(NP(C)(=O)Oc2ccc(F)cc2)cc1 (configuration not stated),0.98
14,COc1ccc(OP(C)(=O)Nc2ccc(SC(F)(F)F)cc2)cc1 (configuration not stated),0.9
15,O=C(OC1CN2CCC1CC2)c1ccc([N+](=O)[O-])cc1 (configuration not stated),0.85
16,C[C@@H]1C=CCP(=O)(Oc2ccccc2)O1 (some centres not stated),0.97
17,C[C@H]1OP(=O)(Oc2ccccc2)C[C@@H]2O[C@@H]21 (some centres not stated),0.795
18,CC(=O)Nc1ccc(Oc2c([N+](=O)[O-])cc([N+](=O)[O-])cc2[N+](=O)[O-])cc1,1.03
19,COc1ccc2c(c1O)-c1c(O)c(OC)cc3c1[C@H](C2)[N+](C)(C)CC3.O=[N+]([O-])c1cc([N+](=O)[O-])c([O-])c([N+](=O)[O-])c1[O-],0.86
20,CC(=O)Nc1ccc([As](=O)(O)O)c(O)c1,0.98
21,CCOc1ccc(C2=NCC(CBr)S2)cc1 (configuration not stated),0.96
22,O=P1(Nc2nc3ccc(Cl)cc3s2)COc2ccccc2O1 (configuration not stated),1.09
23,CP(=O)(Nc1ccccc1F)Oc1ccccc1 (configuration not stated),0.96

row,Structure (SMILES),fold increase
1,CC(C)c1ccc(OP(C)(=O)Nc2ccc(SC(F)(F)F)cc2)cc1 (configuration not stated),0.86
2,CC(C)(C)C(=O)NC(Sc1ccccc1)C(Cl)(Cl)Cl (configuration not stated),0.95
3,CP(=O)(Nc1ccc2c(c1)OCCO2)Oc1ccccc1 (configuration not stated),1.09
4,Cc1ccccc1NP(C)(=O)Nc1ccccc1C,1.03
5,CP(=O)(Nc1ccc(SC(F)(F)F)cc1)Oc1ccc(F)cc1 (configuration not stated),0.91
6,O=P(Nc1nccs1)(c1ccccc1)c1ccccc1,0.91
7,CC(C)C(=O)NC(Sc1ccccc1)C(Cl)(Cl)Cl (configuration not stated),1.05
8,CCOP(C)(=S)SCC(=O)NC(C)(CC)C(=O)O (configuration not stated),0.98
9,c1nnnn1CCn1cnnn1,0.9
10,CC(=O)NC(SC(=S)N(C)C)C(Cl)(Cl)Cl (configuration not stated),0.92
11,O=[N+]([O-])c1ccc(OP2(=O)COCCO2)cc1 (configuration not stated),1.15
12,O=[N+]([O-])c1ncn(CCn2cnc([N+](=O)[O-])n2)n1,0.88
13,Cc1cc(-c2cccc3ccccc23)c(C)cn1.O=[N+]([O-])c1cc([N+](=O)[O-])c(O)c([N+](=O)[O-])c1,0.83
14,O=[N+]([O-])c1cc([N+](=O)[O-])c(NCC2CCS(=O)(=O)C2)c([N+](=O)[O-])c1 (configuration not stated),0.68
15,O=[As](O)(c1ccccc1)c1ccc(O)cc1,1.09
16,Nc1ccc([As](=O)(O)c2ccc([N+](=O)[O-])cc2)cc1,0.96
17,O=C(OC1CN2CCC1CC2)c1cccc(Cl)c1 (configuration not stated),0.99
18,COc1ccc(OP(C)(=O)Nc2cccc(Br)c2)cc1 (configuration not stated),0.98
19,O=P(Nc1ccccn1)(c1ccc(Br)cc1)c1ccc(Br)cc1,0.9
20,C[C@H]1OP(=O)(Oc2ccccc2)[C@H](O)[C@H](O)[C@H]1N=[N+]=[N-] (some centres not stated),0.81
21,O=P(Nc1nc2ccccc2s1)(c1ccccc1)c1ccccc1,0.91
22,CN(C)CCOC(=O)C(O)(c1ccccc1)C1CCCCC1 (configuration not stated),1.01
23,COc1ccc(NP(C)(=O)Oc2ccccc2OC)cc1 (configuration not stated),1.01
